# Measurements published in PubChem BioAssay AID445 (National Center for Advancing Translational Sciences (NCATS), 2006).
# Some of the results follow. The main result of the screen is listed elsewhere. These columns were measured beside it and carry no call. The list favours compounds with an active or inconclusive main result. The note in brackets gives the kind of curve behind each potency; many fits are weak.
# Test: IkB Signaling
# Conditions: ABC-DLBCL IkBa-CBG/CBR dual luciferase ratio (green luciferase fused to IkBa over red control in OCI-Ly3 lymphoma cells), 4 h; measured here: control luc red channel unless noted
# Method in brief: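 Luminescence ratio of IκBα-fused green versus native red beetle luciferase in OCI-Ly3 cells, 4 h post-doxycycline with compound; red signal alone, scaled from basal (0%) to zero light (-100%), flagged nonspecific or cytotoxic effects.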
row,SMILES,AC50
1,Cc1ccc(NC(=O)c2cnc(SCC(=O)N3CCCc4ccccc43)n(C)c2=O)cc1C,"39.8 µM [falling, single point]"
2,Cn1c(CC2C(=O)Nc3ccc(Br)cc32)nc2ccccc2c1=O (configuration not stated),"12.6 µM [falling, partial curve]"
3,O=C(OCc1ccco1)c1ccc2c(c1)N(Cc1ccc([N+](=O)[O-])cc1)C(=O)c1ccccc1S2,"39.8 µM [rising, partial curve, poor fit]"
4,O=C(CN1C(=O)COc2ccc(S(=O)(=O)N3CCCC3)cc21)NCCc1ccc(Cl)cc1,"7.94 µM [falling, partial curve, poor fit]"
5,C=CCn1c(C)cc(C(=O)CSc2nc3ccccc3c(=O)[nH]2)c1C,"12.6 µM [falling, partial curve]"
6,O=c1[nH]c2ccc(NS(=O)(=O)c3ccc(F)cc3)cc2s1,"12.6 µM [falling, partial curve]"
7,COc1ccc2oc(=O)cc(CN3CCN(C(=O)c4ccccc4Br)CC3)c2c1,"25.1 µM [falling, single point]"
8,CCNc1nc(NC(C)(C)C)nc(N(C#N)CC)n1,"1.26 µM [rising, partial curve]"
9,CCOC(=O)c1ccc2nc(NC(=O)c3ccco3)sc2c1,"12.6 µM [falling, partial curve]"
10,CCc1ccc(CNC(=O)c2ccc(NC(=O)N3CCSc4ncccc43)cc2)cc1,"15.8 µM [falling, partial curve]"
11,Cc1ccc(S(=O)(=O)N2CCC(c3nnc(-c4cccc(C)c4)o3)CC2)cc1,"39.8 µM [falling, single point]"
12,COc1cc(Cl)c(C)cc1NC(=O)CSc1nc2ccccc2o1,"15.8 µM [falling, partial curve]"
13,O=c1c2ccccc2c(/C=N/c2ncn[nH]2)c(O)n1Cc1ccccc1,"25.1 µM [falling, partial curve]"
14,CC(C)NC(=O)Cn1c(=O)nc(-c2ccccc2)c2ccccc21,"1.58 µM [falling, full curve]"
15,CCOc1ccc(CCNC(=O)c2ccc(C)c(-n3cnc4cccnc43)c2)cc1,"12.6 µM [falling, partial curve]"
16,Cc1cccc(N(C)C(=O)CS(=O)(=O)c2cccc3nsnc23)c1,"15.8 µM [falling, partial curve]"
17,COc1cccc(CNC(=O)c2ccc3c(Cl)c4c(nc3c2)CCCC4)c1,"10 µM [falling, partial curve]"
18,Cc1ccc(C(C)C)c(OCc2ccc(C(=O)Nc3ccc(S(N)(=O)=O)cc3C)o2)c1,"31.6 µM [falling, single point]"
19,CCOc1ccccc1NC(=O)C1CCN(S(=O)(=O)c2cccc3nonc23)CC1,"7.94 µM [rising, single point]"
20,O=C(Nc1cc(-c2ccc(F)c(F)c2)no1)c1ccccc1F,"5.01 µM [falling, partial curve]"
21,Cc1cccc(N2CCN(C(=O)C3CCCN(C(=O)c4cc5sccc5n4C)C3)CC2)c1C (configuration not stated),"25.1 µM [falling, partial curve]"

# 3 compounds drawn at random from the list so far, as already listed:
row,SMILES,AC50
21,Cc1cccc(N2CCN(C(=O)C3CCCN(C(=O)c4cc5sccc5n4C)C3)CC2)c1C (configuration not stated),"25.1 µM [falling, partial curve]"
8,CCNc1nc(NC(C)(C)C)nc(N(C#N)CC)n1,"1.26 µM [rising, partial curve]"
14,CC(C)NC(=O)Cn1c(=O)nc(-c2ccccc2)c2ccccc21,"1.58 µM [falling, full curve]"

# Later entries.

row,SMILES,AC50
1,COc1ccc(N2CCN(c3ncnc4onc(C)c34)CC2)cc1,"1 µM [falling, partial curve, poor fit]"
2,CCOc1ccc(CCNC(=O)Cn2ccc3cc(S(=O)(=O)N4CCCCCC4)ccc32)cc1,"1.58 µM [falling, full curve]"
3,COc1ccc(NC(=O)C(=O)c2cc(C)n(-c3ccc(C)cc3)c2C)cc1Cl,"15.8 µM [falling, partial curve]"
4,Cn1c(CC(=O)Nc2ccccc2)nnc1SCCOc1ccccc1,"5.01 µM [falling, partial curve]"
5,CCOC(=O)c1c(C)[nH]c(C)c1S(=O)(=O)N1CCCC(C(=O)Nc2ccc(OC)c(OC)c2)C1 (configuration not stated),"39.8 µM [rising, single point]"
6,CC(C)c1ccc(NC(=O)c2cc(S(=O)(=O)NC3CCCCC3)ccc2F)cc1,"31.6 µM [falling, partial curve, poor fit]"
7,Cc1cccc(NC(=O)CN(C)S(=O)(=O)c2cccc3cccnc23)c1,"15.8 µM [falling, partial curve]"
8,COC(=O)c1cc(C)nc2c1c(=O)nc(SCc1cccc(C(F)(F)F)c1)n2C1CC1,"39.8 µM [falling, single point]"
9,O=C(C1CCC(CNS(=O)(=O)c2cccs2)CC1)N1CCN(c2ccc(Cl)cc2)CC1 (configuration not stated),"10 µM [falling, partial curve]"
10,COc1ccc(CCNC(=O)Cn2c(=O)nc(-c3ccccc3F)c3cc(Cl)ccc32)cc1OC,"20 µM [falling, partial curve]"
11,CCCn1c(SCC(O)c2cccc(OC)c2)nc2ccccc21 (configuration not stated),"3.16 µM [falling, partial curve]"
12,Cc1ccc2c(c1)NC(=O)C(CC(=O)NCCCN1CCN(c3cc(Cl)ccc3C)CC1)O2 (configuration not stated),"15.8 µM [falling, partial curve]"
13,COc1cc(NCCCC(C)N)c2ncccc2c1 (configuration not stated),"15.8 µM [falling, partial curve]"
14,Cc1cnc(C)c(N2CCC(C(=O)NCc3cccs3)CC2)n1,"10 nM [rising, full curve] [measured here: IkB-luc green channel]"
15,Cc1ccc(C)c(CN2CCCN(Cc3cc(C)ccc3C)S2(=O)=O)c1,"39.8 µM [falling, single point]"
16,CCc1nc2ccccc2n1CCCCOc1ccccc1C,"25.1 µM [falling, single point]"
17,COc1cc2cc(C(c3nnnn3C3CCCC3)N(C)C3CCCCC3)c(=O)[nH]c2cc1OC (configuration not stated),"31.6 µM [falling, single point] [measured here: IkB-luc green channel]"
18,CC(Nc1nc(N2CCCC2)nc2ccccc12)c1ccccc1 (configuration not stated),"15.8 µM [falling, partial curve]"
19,COc1cc2c(cc1NC(=O)CN(C)Cc1nc3ccccc3c(=O)[nH]1)oc1ccccc12,"12.6 µM [falling, partial curve]"
20,CCCOc1cccc(C(=O)Nc2ccc(-c3nc4ccccc4s3)c(Cl)c2)c1,"12.6 µM [falling, partial curve]"
21,CCN1C(C(=O)c2ccccc2)=C(OC(=O)C(C)C)c2ccccc2S1(=O)=O,"15.8 µM [falling, partial curve]"

row,SMILES,AC50
1,CCc1ccccc1NC(=O)Cn1c(=O)nc(-c2ccccc2)c2ccccc21,"1.58 µM [falling, full curve, poor fit]"
2,Cc1ccccc1NC(=O)N1CCCC(c2nc(-c3ccc(C(C)C)cc3)no2)C1 (configuration not stated),"0.794 µM [falling, full curve]"
3,CCn1c2c(c(=O)n3ncc(C(=O)Nc4cccc(Cl)c4C)c13)CN(Cc1ccc(OC)cc1)CC2,"25.1 µM [falling, single point]"
4,CCCC(O)c1nc2ccccc2n1CCCCOc1ccc(OC)cc1 (configuration not stated),"0.158 µM [falling, full curve]"
5,O=S1(=O)Nc2c(ccc3cccnc23)-c2ccccc21,"1 µM [rising, partial curve] [measured here: IkB-luc green channel]"
6,Cc1cc(C)cc(NC(=O)CSc2nncn3c2cc2occc23)c1,"10 µM [falling, partial curve]"
7,O=C(CC1N=C2c3ccccc3N=C(SCc3ccc(F)cc3)N2C1=O)NCc1cccs1 (configuration not stated),"10 µM [rising, partial curve, poor fit]"
8,COC(=O)c1nnn(-c2nonc2N)c1CSc1nc2ccccc2s1,"39.8 µM [falling, single point]"
9,COc1cccc(CNC(=O)Cn2cc3c(n2)-c2c(oc(C(=O)N4CCCC4)c2C)CC3)c1,"15.8 µM [falling, partial curve]"
10,CCc1ccc(NC(=O)Cn2ncc3c4ccccc4n(C)c3c2=O)cc1,"10 µM [falling, single point]"
11,CCCCn1cc(S(=O)(=O)c2ccc(OC)cc2)c(=O)c2cc(F)c(F)cc21,"3.98 µM [falling, partial curve, poor fit]"
12,Clc1cccc(-c2csc(-c3nc(-c4ccc(Br)s4)cs3)n2)c1,"15.8 µM [rising, partial curve]"
13,CCOc1ccc(NC(=O)c2cc(S(=O)(=O)NC3CCCC3)ccc2F)cc1,"12.6 µM [falling, partial curve]"
14,CCc1ccc(NC(=O)CSc2nc(-c3ccccc3)c(C#N)c(=O)[nH]2)cc1,"10 µM [falling, partial curve]"
15,Cc1ccc(OCc2nc(-c3ccc(C(=O)N4CCN(c5ccc(Cl)cc5)CC4)cc3)oc2C)cc1,"20 µM [falling, partial curve]"
16,CC(C)CCNC(=O)CSc1c2c(nc3ccc(Cl)cc13)CCCC2,"15.8 µM [falling, partial curve]"
17,CC(C)Oc1ccc(CNC(=O)Cn2c(=O)oc3ccccc32)cc1,"25.1 µM [falling, single point]"
18,Cc1cccc(-c2nc(SCC(=O)Nc3cccc(C(F)(F)F)c3)n3[nH]c(=O)cc3n2)c1,"25.1 µM [falling, single point]"
19,CC(C)(C)c1nnc2sc(SCC(=O)c3cccs3)nn2c1=O,"0.398 µM [falling, full curve]"
20,CCOc1ccc(CNC(=O)C2CCCN(S(=O)(=O)c3ccc4c(c3)CCCC(=O)N4)C2)cc1 (configuration not stated),"39.8 µM [falling, single point]"
